Patent US10093654B2, “Therapeutically active compounds and their methods of use” (Agios Pharmaceuticals, Inc., priority 2013, dated 2018)
Some results were stated once for a whole list of compounds, not compound by compound.

Key:
[1] = test system: IDH2 (R140Q) in TF-1 cells; test: Histone hypermethylation, Western blot, TF-1 IDH2 (R140Q) cells; type: cell-based; settings: intracellular 2-HG below 1 mM
[2] = test system: IDH2 (R140Q) in TF-1 cells; test: Vimentin expression in TF-1 IDH2 (R140Q) cells; type: cell-based; settings: 7 days of treatment; 2-HG levels below 1 mM

Compound: CC(C)(O)CNc1nc(Nc2ccnc(C(F)(F)F)c2)nc(-c2cccc(C(F)(F)F)n2)n1 [compound 3, 2-Methyl-1-[(4-[6-(trifluoromethyl)pyridin-2-yl]-6-{[2-(trifluoromethyl)pyridin-4-yl]amino}-1,3,5-triazin-2-yl)amino]propan-2-ol]
- concentrations at which reduction in histone methylation is most apparent [1]: > 200 nM
- dose at which vimentin expression is reduced to baseline levels [2]: > 200 nM
